Data as given in the supplement of paper PMC6078165.
Values are relative to the signal before dosing, not to a vehicle control; the signal also falls without drug.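 Fibroblast labels denote human fibroblasts, mainly primary ones from uterus (C12385, HUF), lung (H6013), bone (Hs27A), adrenal (HADF) and skin (WS1), plus mammary HMF and breast cancer-associated Hs343T. Cancer cells are basal-like or mesenchymal-like triple-negative breast cancer lines. A hit is a response shift exceeding 3x replicate standard deviation. The tissue of the other fibroblasts is not given here.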

Tested on: MDAMB436
Test: relative JC-1 red fluorescence (viability) vs pre-drug, coculture with fibroblast (fraction); higher = more viable cancer cells
Conditions: 10 µM
Experimental: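 JC-1 labelled TNBC cells cocultured 1:1 (1,500 cells each) with CellTrace Violet stained primary or stromal fibroblasts in 384-well plates in FluoroBrite medium, treated with one of 42 anticancer drugs at 0.1, 1, 10 or 100 uM. JC-1 red fluorescence (mitochondrial integrity in cancer cells only) was read by plate reader every 8 h for 72 h. Values are normalised to each well's pre-drug value. The stock of one drug was tenfold lower, so its dose labels may be too high.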

CO[C@H]1C[C@@H]2CC[C@@H](C)[C@@](O)(O2)C(=O)C(=O)N2CCCC[C@H]2C(=O)O[C@H]([C@H](C)C[C@@H]2CC[C@@H](O)[C@H](OC)C2)CC(=O)[C@H](C)/C=C(\C)[C@@H](O)[C@@H](OC)C(=O)[C@H](C)C[C@H](C)/C=C/C=C/C=C/1C [Rapamycin]
relative JC-1 red fluorescence
Conditions | 8 h | 16 h | 24 h | 32 h | 40 h | 48 h | 56 h | 64 h | 72 h
coculture fibroblast: C12385 | 0.819 | 0.912 | 0.925 | 0.946 | 0.921 | 0.863 | 0.877 | 0.876 | 0.878
coculture fibroblast: H6013 | 0.706 | 0.779 | 0.893 | 0.931 | 0.81 | 0.862 | 0.767 | 0.863 | 0.846
coculture fibroblast: H6019 | 0.748 | 0.774 | 0.852 | 0.865 | 0.908 | 0.824 | 0.85 | 0.8724 | 0.891
coculture fibroblast: H6076 | 0.837 | 0.914 | 0.938 | 0.762 | 0.892 | 0.738 | 0.879 | 0.796 | 0.848
coculture fibroblast: H6231 | 0.832 | 0.826 | 0.851 | 0.893 | 0.933 | 0.927 | 0.936 | 0.93 | 0.803
coculture fibroblast: HADF | 0.744 | 0.7997 | 0.88 | 0.944 | 0.815 | 0.907 | 0.891 | 0.86 | 0.8738
coculture fibroblast: HCFa | 0.742 | 0.775 | 0.832 | 0.905 | 0.857 | 0.795 | 0.78 | 0.889 | 0.837
coculture fibroblast: HCPF | 0.814 | 0.822 | 0.926 | 0.916 | 0.933 | 0.913 | 0.902 | 0.879 | 0.857
coculture fibroblast: HHSteC | 0.729 | 0.873 | 0.947 | 0.949 | 0.847 | 0.836 | 0.86 | 0.931 | 0.847
coculture fibroblast: HMF | 0.798 | 0.795 | 0.913 | 0.947 | 0.871 | 0.837 | 0.803 | 0.829 | 0.87
coculture fibroblast: HPFa | 0.774 | 0.863 | 0.933 | 0.984 | 0.919 | 0.86 | 0.85 | 0.9855 | 0.9401
coculture fibroblast: HUF | 0.838 | 0.901 | 0.936 | 0.949 | 0.906 | 0.899 | 0.832 | 0.944 | 0.97
coculture fibroblast: Hs5 | 0.805 | 0.8616 | 0.942 | 0.946 | 0.808 | 0.9 | 0.749 | 0.923 | 0.921
coculture fibroblast: Hs27A | 0.6946 | 0.761 | 0.837 | 0.879 | 0.8818 | 0.9617 | 0.873 | 0.855 | 0.7885
coculture fibroblast: Hs343T | 0.888 | 0.883 | 0.95 | 0.956 | 0.973 | 0.932 | 0.937 | 0.916 | 0.919
coculture fibroblast: WS1 | 0.798 | 0.8166 | 0.869 | 0.855 | 0.864 | 0.866 | 0.855 | 0.827 | 0.81
